doi:10.1101/2024.06.21.600079
Results are given in words; binding and its absence hold for the method and conditions named. Binding seen in cells or lysates may run through a third protein. Some binding calls cover weakened binding; strength is not graded here.

Sequences of proteins named here, by UniProt entry; tags and fusion partners are left off.
UniProt Q04206: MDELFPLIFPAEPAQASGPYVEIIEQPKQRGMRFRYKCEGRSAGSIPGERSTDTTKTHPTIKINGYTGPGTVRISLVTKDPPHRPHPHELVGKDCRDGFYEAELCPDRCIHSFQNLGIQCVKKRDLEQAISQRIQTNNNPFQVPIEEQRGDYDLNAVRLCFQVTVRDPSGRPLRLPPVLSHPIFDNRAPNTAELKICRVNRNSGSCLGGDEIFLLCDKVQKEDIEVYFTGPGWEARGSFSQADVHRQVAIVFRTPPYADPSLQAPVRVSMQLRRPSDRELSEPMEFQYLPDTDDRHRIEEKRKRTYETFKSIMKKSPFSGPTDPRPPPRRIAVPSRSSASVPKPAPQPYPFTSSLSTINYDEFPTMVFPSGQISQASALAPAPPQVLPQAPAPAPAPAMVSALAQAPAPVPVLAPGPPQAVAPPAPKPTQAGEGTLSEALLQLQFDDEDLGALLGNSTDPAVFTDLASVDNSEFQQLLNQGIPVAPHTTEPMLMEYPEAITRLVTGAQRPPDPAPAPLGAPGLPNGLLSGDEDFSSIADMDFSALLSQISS
UniProt P46937: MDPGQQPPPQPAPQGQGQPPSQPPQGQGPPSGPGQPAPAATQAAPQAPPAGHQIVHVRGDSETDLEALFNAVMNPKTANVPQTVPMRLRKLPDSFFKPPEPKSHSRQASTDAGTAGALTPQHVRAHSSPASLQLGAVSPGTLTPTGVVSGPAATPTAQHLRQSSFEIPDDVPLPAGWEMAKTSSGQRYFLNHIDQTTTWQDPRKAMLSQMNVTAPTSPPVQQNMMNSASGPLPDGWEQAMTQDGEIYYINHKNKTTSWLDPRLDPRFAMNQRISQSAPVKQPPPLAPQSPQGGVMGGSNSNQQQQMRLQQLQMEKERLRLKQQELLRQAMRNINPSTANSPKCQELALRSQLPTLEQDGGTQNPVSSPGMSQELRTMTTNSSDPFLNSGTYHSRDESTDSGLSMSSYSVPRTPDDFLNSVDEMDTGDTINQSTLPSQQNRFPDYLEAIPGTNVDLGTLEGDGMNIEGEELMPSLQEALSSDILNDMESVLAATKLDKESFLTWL

Tests used:
Myc-tagged p65 (Myc-p65) = Myc-tagged p65 (Myc-p65) (UniProt Q04206); experiment: co-IP; HEK293A (HEK293) cells transfected with Myc-p65, HA-ZHX2 and Fg-YAP-5SA and/or TEAD4-GFP, one of them in increasing amounts; extracts precipitated with anti-Myc antibody overnight, Protein A resin; western blot for tags, endogenous TEAD4 or YAP
[1] = molecular target: p65 subunit of NF-κB, endogenous in 786-O cells (human (endogenous in 786-O)) (UniProt Q04206); experiment: co-IP; endogenous proteins; 786-O cell extracts, cells grown without or with 2 μM XMU-MP-1 for 6 hours; precipitated with p65 antibody or control IgG overnight at 4°C, Protein A resin; western blot

binding (Myc-tagged p65 (Myc-p65)) | binding [1] | Substance
binds | – | YAP, endogenous in HEK293 cells (from UniProt P46937 1-504)
– | binds | Yes1 associated transcriptional regulator (YAP), endogenous in 786-O cells (from UniProt P46937 1-504)
